Test [1] has as its target HA-tagged PbWIG1 (PBANKA_1216700) (P. berghei). The experiment in a line: affinity purification with mass spectrometry; HA-tagged bait captured on anti-HA magnetic beads from P. berghei gametocytes 4 min after activation, fixed 10 min with 1% formaldehyde, lysed in RIPA buffer; label-free semiquantitative LC-MS/MS; compared with FBXO1-HA immunoprecipitations (earlier work) as control; n = 2.

By UniProt entry, the sequences of proteins in these tests, tags left out. Where a name states a change or a piece, a line headed by the entry shows the natural chain unless it says otherwise.
UniProt C6KTD3: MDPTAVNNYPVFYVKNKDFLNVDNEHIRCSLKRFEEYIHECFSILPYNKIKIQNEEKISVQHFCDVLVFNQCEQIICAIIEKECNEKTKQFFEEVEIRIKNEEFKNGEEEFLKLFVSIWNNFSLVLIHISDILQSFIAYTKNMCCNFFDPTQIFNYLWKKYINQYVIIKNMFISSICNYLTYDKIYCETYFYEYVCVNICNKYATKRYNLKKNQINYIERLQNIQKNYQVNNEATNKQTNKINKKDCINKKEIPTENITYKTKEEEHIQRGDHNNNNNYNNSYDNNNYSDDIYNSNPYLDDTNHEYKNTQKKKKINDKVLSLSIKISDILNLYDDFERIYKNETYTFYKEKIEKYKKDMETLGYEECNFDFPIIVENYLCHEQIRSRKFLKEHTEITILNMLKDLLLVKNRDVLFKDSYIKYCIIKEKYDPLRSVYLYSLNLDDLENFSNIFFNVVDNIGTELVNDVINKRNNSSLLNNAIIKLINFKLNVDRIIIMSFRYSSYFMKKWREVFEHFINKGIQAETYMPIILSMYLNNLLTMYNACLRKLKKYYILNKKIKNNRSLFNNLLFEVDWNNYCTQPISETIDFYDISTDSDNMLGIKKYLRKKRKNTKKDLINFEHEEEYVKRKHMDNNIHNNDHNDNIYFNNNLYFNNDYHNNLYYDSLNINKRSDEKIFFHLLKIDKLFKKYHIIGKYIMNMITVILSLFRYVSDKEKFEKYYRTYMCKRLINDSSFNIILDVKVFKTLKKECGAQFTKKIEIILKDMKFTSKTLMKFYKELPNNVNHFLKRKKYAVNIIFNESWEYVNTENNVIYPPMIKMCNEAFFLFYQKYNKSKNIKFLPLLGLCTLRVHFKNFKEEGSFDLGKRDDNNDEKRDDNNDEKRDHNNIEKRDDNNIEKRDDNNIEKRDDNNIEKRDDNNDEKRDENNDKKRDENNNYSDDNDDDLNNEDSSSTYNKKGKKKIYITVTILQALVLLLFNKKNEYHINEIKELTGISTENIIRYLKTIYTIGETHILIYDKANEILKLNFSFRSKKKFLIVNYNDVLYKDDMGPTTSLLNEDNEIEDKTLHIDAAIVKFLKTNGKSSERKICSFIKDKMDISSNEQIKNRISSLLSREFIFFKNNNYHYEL
UniProt A0A509AK91: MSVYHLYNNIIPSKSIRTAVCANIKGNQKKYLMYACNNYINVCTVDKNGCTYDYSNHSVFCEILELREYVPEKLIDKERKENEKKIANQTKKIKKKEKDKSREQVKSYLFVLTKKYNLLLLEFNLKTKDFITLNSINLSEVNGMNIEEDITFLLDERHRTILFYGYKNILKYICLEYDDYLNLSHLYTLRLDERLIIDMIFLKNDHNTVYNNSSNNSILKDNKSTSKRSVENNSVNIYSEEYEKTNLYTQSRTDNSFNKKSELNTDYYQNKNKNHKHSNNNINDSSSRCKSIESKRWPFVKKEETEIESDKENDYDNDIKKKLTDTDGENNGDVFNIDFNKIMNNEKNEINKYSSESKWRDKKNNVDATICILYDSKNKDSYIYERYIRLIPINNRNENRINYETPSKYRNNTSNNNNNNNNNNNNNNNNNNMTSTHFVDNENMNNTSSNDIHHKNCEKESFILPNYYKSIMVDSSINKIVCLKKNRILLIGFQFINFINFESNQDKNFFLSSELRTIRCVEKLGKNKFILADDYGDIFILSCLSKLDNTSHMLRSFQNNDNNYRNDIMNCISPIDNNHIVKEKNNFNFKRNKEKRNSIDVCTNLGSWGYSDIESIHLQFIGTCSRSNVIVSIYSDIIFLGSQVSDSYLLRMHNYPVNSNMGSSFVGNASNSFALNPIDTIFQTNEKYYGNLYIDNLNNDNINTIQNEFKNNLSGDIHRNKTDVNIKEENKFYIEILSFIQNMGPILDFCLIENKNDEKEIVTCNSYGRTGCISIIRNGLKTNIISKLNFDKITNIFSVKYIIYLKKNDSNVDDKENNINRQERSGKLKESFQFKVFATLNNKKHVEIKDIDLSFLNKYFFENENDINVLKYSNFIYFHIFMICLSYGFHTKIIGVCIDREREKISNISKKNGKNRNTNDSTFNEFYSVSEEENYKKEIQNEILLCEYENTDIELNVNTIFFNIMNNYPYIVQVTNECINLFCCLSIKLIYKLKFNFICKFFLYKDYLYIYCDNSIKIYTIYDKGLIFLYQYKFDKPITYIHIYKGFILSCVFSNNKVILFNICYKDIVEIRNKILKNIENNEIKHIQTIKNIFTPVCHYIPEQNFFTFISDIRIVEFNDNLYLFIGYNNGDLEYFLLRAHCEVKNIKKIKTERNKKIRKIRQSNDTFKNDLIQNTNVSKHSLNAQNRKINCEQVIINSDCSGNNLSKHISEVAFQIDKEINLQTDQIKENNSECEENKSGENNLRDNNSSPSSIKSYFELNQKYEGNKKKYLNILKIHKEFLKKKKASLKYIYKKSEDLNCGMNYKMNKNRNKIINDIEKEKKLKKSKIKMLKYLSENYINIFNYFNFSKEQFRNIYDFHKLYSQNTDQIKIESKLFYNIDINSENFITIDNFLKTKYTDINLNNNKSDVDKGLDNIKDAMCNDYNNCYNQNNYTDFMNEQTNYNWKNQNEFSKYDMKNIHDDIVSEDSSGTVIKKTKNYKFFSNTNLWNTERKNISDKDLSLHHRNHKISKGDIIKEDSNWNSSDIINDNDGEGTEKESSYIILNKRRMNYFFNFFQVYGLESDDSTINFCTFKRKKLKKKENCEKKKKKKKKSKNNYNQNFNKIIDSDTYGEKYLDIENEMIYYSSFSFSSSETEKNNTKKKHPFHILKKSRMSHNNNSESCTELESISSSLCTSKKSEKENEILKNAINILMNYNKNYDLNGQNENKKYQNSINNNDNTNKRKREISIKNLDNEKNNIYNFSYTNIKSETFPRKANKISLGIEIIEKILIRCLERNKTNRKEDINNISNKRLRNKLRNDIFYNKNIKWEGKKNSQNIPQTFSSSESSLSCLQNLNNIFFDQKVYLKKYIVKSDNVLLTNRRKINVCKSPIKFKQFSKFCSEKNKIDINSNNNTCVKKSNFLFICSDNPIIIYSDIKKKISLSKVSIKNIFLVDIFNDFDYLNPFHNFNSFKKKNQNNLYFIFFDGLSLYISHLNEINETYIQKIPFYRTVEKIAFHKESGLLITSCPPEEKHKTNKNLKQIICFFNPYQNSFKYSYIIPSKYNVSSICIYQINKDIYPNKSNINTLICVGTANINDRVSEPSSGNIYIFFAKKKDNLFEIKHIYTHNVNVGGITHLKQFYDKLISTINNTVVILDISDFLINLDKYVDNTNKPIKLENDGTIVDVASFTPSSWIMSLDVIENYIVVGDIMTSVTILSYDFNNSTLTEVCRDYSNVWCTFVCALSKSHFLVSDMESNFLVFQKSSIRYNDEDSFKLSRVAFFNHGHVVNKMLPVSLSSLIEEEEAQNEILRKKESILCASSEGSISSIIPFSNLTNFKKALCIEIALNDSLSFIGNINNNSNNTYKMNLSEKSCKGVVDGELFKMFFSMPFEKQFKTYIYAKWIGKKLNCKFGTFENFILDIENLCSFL
UniProt A0A509AZB5: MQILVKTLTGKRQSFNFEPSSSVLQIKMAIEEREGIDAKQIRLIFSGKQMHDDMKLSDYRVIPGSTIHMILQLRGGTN
UniProt A0A509AI98: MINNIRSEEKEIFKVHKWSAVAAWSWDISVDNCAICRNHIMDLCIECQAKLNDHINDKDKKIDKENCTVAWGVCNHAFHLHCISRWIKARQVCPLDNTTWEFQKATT
UniProt A0A509AEF7: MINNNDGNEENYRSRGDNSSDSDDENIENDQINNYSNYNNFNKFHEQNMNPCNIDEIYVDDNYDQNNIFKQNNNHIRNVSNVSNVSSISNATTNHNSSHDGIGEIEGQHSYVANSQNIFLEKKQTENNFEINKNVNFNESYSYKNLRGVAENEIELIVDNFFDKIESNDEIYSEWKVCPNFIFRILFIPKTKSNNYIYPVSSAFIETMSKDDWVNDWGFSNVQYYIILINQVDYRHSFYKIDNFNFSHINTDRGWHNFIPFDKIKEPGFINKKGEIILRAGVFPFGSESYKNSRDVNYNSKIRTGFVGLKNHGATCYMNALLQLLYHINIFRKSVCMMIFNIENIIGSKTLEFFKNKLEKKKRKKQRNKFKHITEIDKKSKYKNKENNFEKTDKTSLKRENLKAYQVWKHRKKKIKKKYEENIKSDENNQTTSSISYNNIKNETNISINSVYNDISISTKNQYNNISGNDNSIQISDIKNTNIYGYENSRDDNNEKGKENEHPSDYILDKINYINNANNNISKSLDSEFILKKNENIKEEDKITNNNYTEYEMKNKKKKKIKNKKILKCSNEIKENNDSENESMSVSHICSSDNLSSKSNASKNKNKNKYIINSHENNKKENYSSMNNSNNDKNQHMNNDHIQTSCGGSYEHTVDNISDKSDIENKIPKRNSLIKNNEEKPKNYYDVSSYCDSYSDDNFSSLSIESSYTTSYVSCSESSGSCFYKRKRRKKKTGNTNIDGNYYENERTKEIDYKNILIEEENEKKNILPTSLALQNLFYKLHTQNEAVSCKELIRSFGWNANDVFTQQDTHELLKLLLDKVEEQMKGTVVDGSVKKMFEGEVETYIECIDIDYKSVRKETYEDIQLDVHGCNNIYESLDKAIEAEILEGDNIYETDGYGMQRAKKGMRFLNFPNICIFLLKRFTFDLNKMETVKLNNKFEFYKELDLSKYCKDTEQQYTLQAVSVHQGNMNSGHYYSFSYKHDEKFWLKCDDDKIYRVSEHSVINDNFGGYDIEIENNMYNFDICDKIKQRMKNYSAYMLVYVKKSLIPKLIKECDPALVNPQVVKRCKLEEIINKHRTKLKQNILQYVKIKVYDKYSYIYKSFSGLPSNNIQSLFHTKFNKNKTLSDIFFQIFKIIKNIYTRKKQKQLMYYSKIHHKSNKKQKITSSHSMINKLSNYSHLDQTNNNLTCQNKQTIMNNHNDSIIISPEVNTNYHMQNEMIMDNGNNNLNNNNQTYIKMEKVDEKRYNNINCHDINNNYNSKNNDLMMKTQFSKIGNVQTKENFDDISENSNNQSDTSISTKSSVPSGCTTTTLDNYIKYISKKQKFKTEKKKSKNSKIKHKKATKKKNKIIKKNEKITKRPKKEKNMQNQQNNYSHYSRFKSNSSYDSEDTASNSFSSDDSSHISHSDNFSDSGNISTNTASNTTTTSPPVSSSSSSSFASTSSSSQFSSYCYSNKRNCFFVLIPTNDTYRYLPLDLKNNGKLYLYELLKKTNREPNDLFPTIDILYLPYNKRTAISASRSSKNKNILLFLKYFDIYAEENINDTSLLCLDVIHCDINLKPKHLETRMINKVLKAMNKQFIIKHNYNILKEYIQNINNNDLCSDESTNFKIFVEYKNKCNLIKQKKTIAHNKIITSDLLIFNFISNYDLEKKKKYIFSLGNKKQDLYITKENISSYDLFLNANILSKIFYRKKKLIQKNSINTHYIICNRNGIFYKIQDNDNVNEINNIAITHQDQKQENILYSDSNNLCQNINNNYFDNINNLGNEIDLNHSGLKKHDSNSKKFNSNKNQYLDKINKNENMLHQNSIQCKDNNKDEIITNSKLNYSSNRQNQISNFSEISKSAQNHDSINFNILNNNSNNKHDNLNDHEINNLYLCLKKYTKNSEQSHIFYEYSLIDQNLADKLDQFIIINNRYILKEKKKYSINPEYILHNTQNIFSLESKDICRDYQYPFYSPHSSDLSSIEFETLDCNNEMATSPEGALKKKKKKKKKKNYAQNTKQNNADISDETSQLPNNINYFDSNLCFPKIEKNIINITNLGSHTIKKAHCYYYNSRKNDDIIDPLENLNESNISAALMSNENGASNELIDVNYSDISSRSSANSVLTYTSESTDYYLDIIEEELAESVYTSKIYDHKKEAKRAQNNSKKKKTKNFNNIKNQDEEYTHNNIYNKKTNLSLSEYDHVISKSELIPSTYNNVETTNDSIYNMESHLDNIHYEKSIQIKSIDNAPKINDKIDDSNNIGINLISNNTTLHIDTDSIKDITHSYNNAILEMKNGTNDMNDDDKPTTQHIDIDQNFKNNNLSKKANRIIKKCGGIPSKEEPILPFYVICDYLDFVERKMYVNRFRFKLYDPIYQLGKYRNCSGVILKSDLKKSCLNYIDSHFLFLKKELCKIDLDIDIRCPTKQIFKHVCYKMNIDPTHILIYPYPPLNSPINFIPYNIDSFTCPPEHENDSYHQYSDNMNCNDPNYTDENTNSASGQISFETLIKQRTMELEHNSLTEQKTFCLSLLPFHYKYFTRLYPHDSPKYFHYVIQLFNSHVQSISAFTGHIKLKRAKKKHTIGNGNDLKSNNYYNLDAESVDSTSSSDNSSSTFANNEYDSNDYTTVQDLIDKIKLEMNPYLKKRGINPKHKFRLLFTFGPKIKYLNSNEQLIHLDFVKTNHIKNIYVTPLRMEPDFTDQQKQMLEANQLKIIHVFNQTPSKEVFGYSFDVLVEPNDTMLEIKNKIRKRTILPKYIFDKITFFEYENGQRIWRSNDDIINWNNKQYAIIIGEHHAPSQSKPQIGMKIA

Test [2] concerns the target triple HA-tagged PbCUL4 (PBANKA_1128600) (P. berghei). Described as above.
Test [3] has as its target HA-tagged PfCUL4 (Cullin-4, PF3D7_0629800) (P. falciparum) (UniProt C6KTD3). The experiment in a line: affinity purification with mass spectrometry; PfCUL4-HA captured on magnetic anti-HA resin from lysate of synchronized P. falciparum schizonts (50 mM HEPES pH 7.5, 150 mM NaCl, 1% Triton X-100), 2 h at 4°C, eluted with HA peptide, LC-MS/MS; WT untransfected line as control; n = 3.

Test [4] addresses HA-tagged PbDDB1 (PBANKA_0807500) (P. berghei). The experiment in a line: affinity purification with mass spectrometry; HA-tagged bait captured on anti-HA magnetic beads from P. berghei gametocytes 4 min after activation, fixed 10 min with 1% formaldehyde, lysed in RIPA buffer; label-free semiquantitative LC-MS/MS; compared with FBXO1-HA immunoprecipitations (earlier work) as control; n = 2.

No constants are given. Whether binding was seen depends on the method and setting. Binding seen in cells or lysates may run through a third protein. Here binding means that the protein was enriched with, or labelled near, the bait; the list need not be complete.

As to “DDB1 (PBANKA_0807500) (from UniProt A0A509AK91)”, the binding entry in test [1] is on record as “binds”.

Consider “Nedd8 (PBANKA_1411400) (from UniProt A0A509AZB5)”, for which the binding result in test [2] and in test [1] was “binds” in each case.

Regarding “RBX1 (PBANKA_0806200) (from UniProt A0A509AI98)”, the binding entry in test [1] is recorded as “binds”.

As to “WD domain protein PF3D7_1410300 (from UniProt Q8ILZ2)”, the binding result in test [3] is reported as “binds”.

Take “WD-repeat protein important for gametogenesis 1 (WIG1; PBANKA_1216700) (from UniProt A0A509AQC3)”: the binding result in test [2] and in test [4] was “binds” throughout.

For the substance “WD-repeat protein important for gametogenesis 1 (WIG1; PF3D7_0321800) (from UniProt O97292)”, the binding entry in test [3] was “binds”.

Turning to “karyopherin β (PF3D7_0524000) (from UniProt Q8I3M5)”, in test [3], the binding result is listed as “binds”.

As for “ubiquitin carboxyl-terminal hydrolase (PbUCH7; PBANKA_0210600) (from UniProt A0A509AEF7) (enzyme)”, the binding result in test [2] is “binds”.

Turning to “ubiquitin carboxyl-terminal hydrolase (PfUCH7; PF3D7_0726500) (from UniProt Q8IBJ1) (enzyme)”, in test [3], the binding entry was “binds”.

The values are drawn from article PMC11481892.
